Earlier results in US10570177B2, “P3 peptidylic inhibitors for treating CAG-repeat RNA toxicity in polyglutamine diseases” (The Chinese University of Hong Kong, priority 2017, dated 2020).
Part of at least one peptide drawing is inferred or uncertain, most often the ends. No end group written: not given here.

Tested on: mammalian cell model
Conditions: expanded CAG RNA-induced cell death; read-out: IC50 in inhibiting cell death; cited from earlier work

For “DGKSKGIAYIEFK [P3WT, reference compound]”, the IC50 is given as 4.37 ± 1.14 µM.
